Results: publication PMC9002759, “The Sunflower WRINKLED1 Transcription Factor Regulates Fatty Acid Biosynthesis Genes through an AW Box Binding Sequence with a Particular Base Bias”
Construct, isoform or probe ends are uncertain for at least one entry.

Biological target: HaWRI1_DBD (6-His-TRX-WRI1_DBD) (Helianthus annuus (CAS-6 line)) (UniProt X2BZR1)
Assay: EMSA
Conditions: 20 mM Tris-HCl pH 8.0, 250 mM NaCl, 2 mM MgCl2, 1% glycerol, 1 mM DTT, 1 mg/mL BSA, 30 min room temperature, gels at 4 °C; DIG EMSA plus 0.05 µg/µL polydIdC; recombinant protein; residues 51-229; protein details: N-terminal 6xHis-thioredoxin fusion; probe letters rebuilt from the primers and the genome

CGGGTAAAAGAACTGGTTACTATGCTAAGTAAAAACTTGAAATTTTTAAAATTTATCATTATTATTAAAAATATGTTTGAAATAACATTTCAAACAAGTTTTGTAAATGAAATATAAAATTAGATAGGAAACAAAACATGTGTAGTTGTATACTACACCCACACACCACCTGTTTACCTGTGACTGTCAAAACTATCTTTCGTCACTCTCTTTGCAAACTCTCCTCGGTCATATCGCCCCCTTCATATTTAGTTTAGTTTAGTTTCTCATCTCTTTCTCTTTCTCACCGCCCCCAAATCTATACAATTTCTTTCTCCTCCCC (double strand) [BCCP-9g (-123)]
binding result: binds

ACCATAGACCATGGGTATTGAAGTTGGGTTTTCATCCGGGTTCGGACTCTTGGATAAAATATAGATGATCCGAGTCCGATGTGTAGTTAAAATTGAGTGAATTGAGTTGGGTGAACTAACTTACATTACATTACAGCCCACCCACAGCCAACATTTCATACGTTTATTTCCAGATTTAGCCTCCTCGTTCACTCCGCCCCTCTTCTTCTTCACCCCCCCTATAAATATATTATTTATTCCATCTCACACACACAAACACACACACACATTCCTGCAACCAACA (double strand) [αPDH-13g (-101)]
binding result: binds

GTGTGTGAGGAGAGTGTGTGTTGGTGGCAGGGGTATATATTGTAAATGCGAGGGCATCGGGATATCCGCAACCTTTGGTGACGAGGGTTTTTAGTCACTATTAAGTTGTGACCAATAATAACGTGCCTTTCTTTTTCTTTTCTCTACACCCACTTTGTTAGGTACTTGGAGTTGGGTACTCATGTAATGTAA (double strand) [ACP1-7g (-126)]
binding result: binds
